Results as given in the supplement of paper PMC6078165.
The reference is the same well before dosing, and untreated signal decays as well.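 Fibroblast labels name human fibroblasts: mostly primary ones from tissues such as uterus (C12385, HUF), lung (H6013), bone (Hs27A), adrenal (HADF) and skin (WS1), plus mammary HMF and breast cancer-associated Hs343T. The cancer cells are basal-like or mesenchymal-like triple-negative breast cancer lines. The paper calls a changed response a hit when it shifts by more than 3x the replicate standard deviation. The tissue of the other fibroblasts is not given here.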

System: MDAMB468
Experiment: relative JC-1 red fluorescence (viability) vs pre-drug, coculture with fibroblast (fraction); higher = more viable cancer cells
Settings: 10 µM
Experimental: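 JC-1 labelled TNBC cells cocultured 1:1 (1,500 cells each) with CellTrace Violet stained primary or stromal fibroblasts in 384-well plates in FluoroBrite medium, treated with one of 42 anticancer drugs at 0.1, 1, 10 or 100 uM. JC-1 red fluorescence (mitochondrial integrity in cancer cells only) was read by plate reader every 8 h for 72 h. Values are normalised to each well's pre-drug value. The stock of one drug was tenfold lower, so its dose labels may be too high.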

COc1cc([C@@H]2c3cc4c(cc3[C@@H](O[C@@H]3O[C@@H]5CO[C@@H](C)O[C@H]5[C@H](O)[C@H]3O)[C@H]3COC(=O)[C@H]23)OCO4)cc(OC)c1O [Etoposide]
relative JC-1 red fluorescence
Settings | 8 h | 16 h | 24 h | 32 h | 40 h | 48 h | 56 h | 64 h | 72 h
coculture fibroblast: C12385 | 0.8498 | 0.815 | 0.776 | 0.742 | 0.696 | 0.695 | 0.648 | 0.626 | 0.622
coculture fibroblast: H6013 | 0.8658 | 0.8519 | 0.78922 | 0.759 | 0.727 | 0.72432 | 0.68 | 0.656 | 0.591
coculture fibroblast: H6019 | 0.837 | 0.809 | 0.7688 | 0.7135 | 0.661 | 0.649 | 0.6 | 0.568 | 0.549
coculture fibroblast: H6076 | 0.9327 | 0.872 | 0.91 | 0.8821 | 0.7981 | 0.763 | 0.695 | 0.657 | 0.678
coculture fibroblast: H6231 | 0.835 | 0.9608 | 0.876 | 0.837 | 0.771 | 0.742 | 0.686 | 0.651 | 0.633
coculture fibroblast: HADF | 0.888 | 0.842 | 0.78 | 0.751 | 0.689 | 0.684 | 0.642 | 0.631 | 0.57
coculture fibroblast: HCFa | 0.88 | 0.88 | 0.854 | 0.824 | 0.781 | 0.793 | 0.74 | 0.713 | 0.669
coculture fibroblast: HCPF | 0.851 | 0.927 | 0.864 | 0.838 | 0.77 | 0.731 | 0.67 | 0.659 | 0.651
coculture fibroblast: HHSteC | 0.893 | 0.874 | 0.826 | 0.785 | 0.754 | 0.755 | 0.7 | 0.678 | 0.617
coculture fibroblast: HMF | 0.833 | 0.9708 | 0.866 | 0.826 | 0.754 | 0.716 | 0.643 | 0.617 | 0.5951
coculture fibroblast: HPFa | 0.937 | 0.916 | 0.876 | 0.818 | 0.788 | 0.788 | 0.73 | 0.716 | 0.634
coculture fibroblast: HUF | 0.891 | 0.839 | 0.789 | 0.722 | 0.678 | 0.669 | 0.631 | 0.615 | 0.59
coculture fibroblast: Hs5 | 0.9903 | 0.98 | 0.914 | 0.888 | 0.803 | 0.769 | 0.734 | 0.703 | 0.732
coculture fibroblast: Hs27A | 0.8742 | 0.8628 | 0.7897 | 0.781 | 0.726 | 0.7238 | 0.693 | 0.679 | 0.62
coculture fibroblast: Hs343T | 0.881 | 0.963 | 0.8737 | 0.835 | 0.7452 | 0.7003 | 0.6361 | 0.6232 | 0.599
coculture fibroblast: WS1 | 0.8605 | 0.783 | 0.7292 | 0.6679 | 0.613 | 0.584 | 0.548 | 0.516 | 0.502
